Here are results for 74 compounds from the supplement of paper PMC11542785.

Structures are written as SMILES. Counter-ions that a name gives are not always drawn. The list shows a part of the results. Many values rest on one well or one pass, so single values are uncertain. Square brackets hold non-standard residues; d marks the D form. Peptide text beside a SMILES is read from it. pGlu = O=C1CC[C@@H](C(=O)O)N1; Thz = O=C(O)[C@@H]1CSCN1

The subject of the test is Drosophila melanogaster DPAGT1 (Alg7) RNAi eye model. Put plainly: eye size Z-score vs DMSO-treated DPAGT1 model flies; higher = larger eye (suppression of DPAGT1 phenotype). The settings on record: 5 uM.

Turning to `C#C[C@]1(O)CC[C@H]2[C@@H]3CCC4=CCCC[C@@H]4[C@H]3CC[C@@]21C` [Lynestrenol], the “eye size Z-score” value came out at 0.22.
On to `O=C(CCCN1CCN(c2ccccn2)CC1)c1ccc(F)cc1` [Azaperone], for which the “eye size Z-score” value (female) came out at 0.19.
Consider `Nc1c2ccccc2nc2ccccc12` [Aminacrine], for which the “eye size Z-score” value is 0.2.
On the same count and under the same terms, the value for `CN1CCC(=C2c3ccccc3Sc3ccccc32)CC1` [Pimethixene maleate] was 0.67; that for `Cc1ccc(=O)n(-c2ccccc2)c1` [Pirfenidone] was 0.54; that for `N[C@@H](Cc1cc(I)c(Oc2ccc(O)c(I)c2)c(I)c1)C(=O)O` [Liothyronine] was 0.58.
For the compound `CN1CCN(C(c2ccccc2)c2ccccc2)CC1` [Cyclizine hydrochloride], the “eye size Z-score” value (female) worked out at 0.2.
Turning to `OCCN(CCO)c1nc(N2CCCCC2)c2nc(N(CCO)CCO)nc(N3CCCCC3)c2n1` [Dipyridamole], the “eye size Z-score” value was -0.16.
Still for that read-out and setting: under `CN(c1nccc(=O)[nH]1)C1CCN(c2nc3ccccc3n2Cc2ccc(F)cc2)CC1` [Mizolastine] stands -0.41; under `O=C(O)c1ccccc1C(=O)Nc1ccc(S(=O)(=O)Nc2nccs2)cc1` [Phthalylsulfathiazole], 0.23; under `CC(=O)OC(C)OC(=O)C(C)c1ccc(-c2ccccc2)c(F)c1` (centres undefined) [Flurbiprofen axetil], 0.86.
On the same count and under the same terms, under `CO[C@@H]1[C@@H](O[C@@H]2O[C@H](C)[C@@H](O[C@H]3C[C@@](C)(O)[C@@H](OC(=O)CC(C)C)[C@H](C)O3)[C@H](N(C)C)[C@H]2O)[C@@H](CC=O)C[C@@H](C)[C@@H](O)/C=C/C=C/C[C@@H](C)OC(=O)C[C@H]1OC(C)=O` [Josamycin] stands 0.91.
The same measure, in the same setting: the value for `CC(=O)CC(c1ccccc1)c1c(O)c2ccccc2oc1=O` (centres undefined) [Warfarin] was -0.13; that for `CCC(=O)O[C@@H]1CC(=O)O[C@H](C)C/C=C/C=C/[C@H](O)[C@H](C)C[C@H](CC=O)[C@H](O[C@@H]2O[C@H](C)[C@@H](O[C@H]3C[C@@](C)(O)[C@@H](OC(=O)CC)[C@H](C)O3)[C@H](N(C)C)[C@H]2O)[C@H]1OC` [Midecamycin] was 0.5; that for `CCN(CC)CC(=O)Nc1c(C)cccc1C` [Lidocaine hydrochloride] was 0.62.
For the compound `CC(=O)OCC(=O)[C@@]12OC(C)(C)O[C@@H]1C[C@H]1[C@@H]3C[C@H](F)C4=CC(=O)C=C[C@]4(C)[C@@]3(F)[C@@H](O)C[C@@]12C` [Fluocinonide], the “eye size Z-score” value was 0.45.
For the compound `c1ccc2c(CC3=NCCN3)cccc2c1` [Naphazoline hydrochloride], the “eye size Z-score” value stood at 1.35.
The same measure, in the same setting: the value for `C=CC1=C(C(=O)O)N2C(=O)[C@@H](NC(=O)/C(=N\O)c3csc(N)n3)[C@H]2SC1` [Cefdinir] was 0.31; that for `CC(=O)NS(=O)(=O)c1ccc(N)cc1` [Sulfacetamide sodic hydrate] was 1.25; that for `Cc1cn([C@H]2C=C[C@@H](CO)O2)c(=O)[nH]c1=O` [Stavudine] was 0.75.
The same measure, in the same setting: the value for `COc1cccc2c1C(=O)c1c(O)c3c(c(O)c1C2=O)C[C@@](O)(C(C)=O)C[C@@H]3O[C@H]1C[C@H](N)[C@H](O)[C@H](C)O1` [Daunorubicin hydrochloride] was 0.34; that for `Cc1c(NC(=O)c2cccnc2)c(=O)n(-c2ccccc2)n1C` [Nifenazone] was 0.41; that for `CS(=O)(=O)OCCCCOS(C)(=O)=O` [Busulfan] was 0.13.
Still for that read-out and setting: under `N[C@@H](Cc1c[nH]c2ccccc12)C(=O)O` [L-Tryptophan] stands 0.08; under `CO/N=C(\C(=O)N[C@@H]1C(=O)N2C(C(=O)[O-])=C(C[n+]3cccc4c3CCC4)CS[C@H]12)c1csc(N)n1` [Cefpirome sulfate], -0.64.
In the case of `NS(=O)(=O)c1cc2c(cc1C(F)(F)F)NCNS2(=O)=O` [Hydroflumethiazide], the “eye size Z-score” value is 1.25.
The same measure, in the same setting: the value for `CC(C)NC[C@@H](O)COc1ccc(CC(N)=O)cc1` [(R,+) Atenolol] was 1.26.
Still for that read-out and setting: under `CC[C@@H]1C(=O)OC[C@@H]1Cc1cncn1C` [Pilocarpine nitrate] stands -0.5; under `CN1CCN(CC(=O)N2c3ccccc3C(=O)Nc3cccnc32)CC1` [Pirenzepine dihydrochloride], -0.86.
In the case of `CN(CCCCCCCCCCN(C)C(=O)Oc1cccc([N+](C)(C)C)c1)C(=O)Oc1cccc([N+](C)(C)C)c1` [Demecarium bromide], the “eye size Z-score” value is -0.35.
Turning to `CC(=O)N(CC(O)CO)c1c(I)c(C(=O)NCC(O)CO)c(I)c(C(=O)NCC(O)CO)c1I` (centres undefined) [Iohexol], the “eye size Z-score” value was determined as 1.13.
Same read-out and setting: under `COC(=O)Nc1nc2cc(Sc3ccccc3)ccc2[nH]1` [Fenbendazole] stands 0.23; under `Cn1c(=O)c2c(ncn2CC2OCCO2)n(C)c1=O` [Doxofylline], -0.79; under `CCOc1nc2cccc(C(=O)O)c2n1Cc1ccc(-c2ccccc2-c2nnn[nH]2)cc1` [Candesartan], 0.56.
On the same count and under the same terms, under `CCCCNC(=N)NC(=N)N` [Buformin] stands -0.89; under `C[C@@](Cc1ccc(O)c(O)c1)(NN)C(=O)O` [Carbidopa], -1.36.
The same measure, in the same setting: the value for `Nc1ncnc2c1ncn2[C@@H]1O[C@H](CO)[C@@H](O)[C@@H]1O` [Vidarabine] was -0.64; that for `CC(=O)OC[C@H]1O[C@@H]([S-])[C@H](OC(C)=O)[C@@H](OC(C)=O)[C@@H]1OC(C)=O.CCP(CC)CC.[Au+]` [Auranofin] was -0.46.
For `COc1cc(Nc2c(C#N)cnc3cc(OCCCN4CCN(C)CC4)c(OC)cc23)c(Cl)cc1Cl` [Bosutinib], the “eye size Z-score” value was determined as 0.2.
Same read-out and setting: the value for `CCCCc1oc2ccc(NS(C)(=O)=O)cc2c1C(=O)c1ccc(OCCCN(CCCC)CCCC)cc1` [Dronedarone hydrochloride] was -0.13.
Same read-out and setting: under `CCC1(c2ccccc2)C(=O)NCNC1=O` [Primidone] stands 0.73; under `CN(C)CCC(c1ccc(Br)cc1)c1ccccn1` (centres undefined) [Brompheniramine maleate], -0.19; under `O=C1CC[C@@H](C(=O)N2CSC[C@H]2C(=O)O)N1` [Pidotimod] ([pGlu]-[Thz]-OH), -0.72.
On the same count and under the same terms, under `c1ccc(-c2ccc(C(c3ccccc3)n3ccnc3)cc2)cc1` (centres undefined) [Bifonazole] stands -0.76; under `Oc1c(Cl)cc(Cl)c2cccnc12` [Chloroxine], -0.1; under `O=C(c1ccc(F)cc1)C1CCN(CCn2c(=O)[nH]c3ccccc3c2=O)CC1` [Ketanserin tartrate hydrate], 0.99.
Consider `CCN(CC)C(=O)c1ccc(O)c(OC)c1` [Ethamivan], for which the “eye size Z-score” value came out at 1.97.
Consider `Cc1[nH]cnc1CN1CCc2c(c3ccccc3n2C)C1=O` [Alosetron hydrochloride], for which the “eye size Z-score” value is -0.2.
On the same count and under the same terms, under `O=C(Cn1c(=O)sc2ccc(Cl)cc21)N1CCN(CCO)CC1` [Tiaramide Hydrochloride] stands 0.12; under `Cc1cc2nc3c(=O)[nH]c(=O)nc-3n(C[C@H](O)[C@H](O)[C@H](O)CO)c2cc1C` [Riboflavine], 1.54.
The same measure, in the same setting: the value for `CCCOc1ccc2[nH]c(NC(=O)OC)nc2c1` [Oxibendazol] was 0.17.
Still for that read-out and setting: the value for `CN(CCCN1c2ccccc2CCc2ccccc21)CC(=O)c1ccc(Cl)cc1` [Lofepramine] was 0.11.
With `O=C1NCC2(CCN(CCc3ccccc3)CC2)O1` [Fenspiride hydrochloride], the “eye size Z-score” value was -0.12.
Still for that read-out and setting: the value for `Clc1ccc2c(c1)CCc1cccnc1C2=C1CCNCC1` [Desloratadine] was 0.93; that for `CC(=O)O[C@]1(C(C)=O)CC[C@H]2[C@@H]3C=C(Cl)C4=CC(=O)CC[C@]4(C)[C@H]3CC[C@@]21C` [Chlormadinone acetate] was -0.03.
`CCN(CC)C(C)CN1c2ccccc2Sc2ccccc21` (centres undefined) [Ethopropazine hydrochloride]: the “eye size Z-score” value is -0.32.
Still for that read-out and setting: under `CCCNC(=O)NS(=O)(=O)c1ccc(Cl)cc1` [Chlorpropamide] stands -0.5.
Still for that read-out and setting: under `Cc1cc(O)c(C(=O)N[C@@H](C(=O)N[C@@H]2C(=O)N3C(C(=O)O)=C(CSc4nnnn4C)CS[C@H]23)c2ccc(O)cc2)cn1` [Cefpiramide] stands 0.13; under `CO[C@H]1/C=C/O[C@@]2(C)Oc3c(C)c(O)c4c(O)c(c5c(nc6cc(C)ccn65)c4c3C2=O)NC(=O)/C(C)=C\C=C\[C@H](C)[C@H](O)[C@@H](C)[C@@H](O)[C@@H](C)[C@H](OC(C)=O)[C@@H]1C` [Rifaximin], -1.12.
Still for that read-out and setting: under `O=C1[C@H]2CCCC[C@H]2C(=O)N1CCCCN1CCN(c2nsc3ccccc23)CC1` [Perospirone hydrochloride] stands -0.12; under `Clc1cccc(Cl)c1NC1=NCCN1` [Clonidine hydrochloride], -0.2; under `Nc1nc2c(ncn2COC(CO)CO)c(=O)[nH]1` [Ganciclovir], 0.
Turning to `NCCCCCC(=O)O` [Aminocaproic acid], the “eye size Z-score” value was 0.52.
Consider `CN(C)C(=N)NC(=N)N` [Metformin hydrochloride], for which the “eye size Z-score” value was 0.28.
The same measure, in the same setting: under `CC=CC(=O)N(CC)c1ccccc1C` [Crotamiton] stands -0.46.
For the compound `CC1=C(C)C(=O)C(C(CCCCCC(=O)O)c2ccccc2)=C(C)C1=O` (centres undefined) [Seratrodast], the “eye size Z-score” value (female) is 0.92.
On to `CNCCc1ccccn1` [Betahistine mesylate], for which the “eye size Z-score” value stood at 0.28.
Same read-out and setting: the value for `CCOC(=O)/C=C(C)/C=C/C=C(C)/C=C/c1c(C)cc(OC)c(C)c1C` [Etretinate] was -0.1; that for `NC[C@H]1O[C@H](O[C@H]2[C@H](O)[C@@H](O[C@H]3O[C@H](CO)[C@@H](O)[C@H](N)[C@H]3O)[C@H](N)C[C@@H]2N)[C@H](N)C[C@@H]1O` [Tobramycin] was 0.93; that for `C=CCOc1ccccc1OCC(O)CNC(C)C` (centres undefined) [Oxprenolol hydrochloride] was 0.26.
Still for that read-out and setting: under `Cc1cc(C(C)(C)C)cc(C)c1CC1=NCCN1` [Xylometazoline hydrochloride] stands -0.56; under `CCN(CC)C(=O)C1(c2ccccc2)CC1CN` (centres undefined) [Milnacipran hydrochloride], 0.58; under `O=P(O)(O)C(O)(Cn1ccnc1)P(=O)(O)O` [Zoledronic acid hydrate], 0.66.
Same read-out and setting: under `CC#CCn1c(N2CCC[C@@H](N)C2)nc2c1c(=O)n(Cc1nc(C)c3ccccc3n1)c(=O)n2C` [Linagliptin] stands 0.74.
